Data taken from PubChem BioAssay AID2685 (National Center for Advancing Translational Sciences (NCATS), 2010).
This is one part of the list. Further columns of the screen follow, without active or inactive calls. Most of these compounds were active or inconclusive in the main read-out, so they are no random draw. The note in brackets gives the kind of curve behind each potency; many fits are weak.

Assay: qHTS Assay for Lipid Storage Modulators in Drosophila S3 Cells;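 on cell number change: cells counted by Cell Tracker Red CMTPX staining in the red channel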
Conditions: BODIPY lipid droplet fluorescence, 18-24 h; for cell number change: measured here: cell count max response, cells fed with added oleic acid
In short: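 Drosophila S3 cells loaded with oleic acid (400 uM, as added) and compounds at several concentrations; lipid droplets imaged by 488-nm laser-scanning cytometry, 500–530 nm intensity and object ratio to cell channel. Percent activity normalized to 20 uM Triacsin C.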

[1] = measured here: cell number channel AC50, cells fed with added oleic acid
[2] = measured here: lipid fluorescence (Fed channel) AC50, cells fed with added oleic acid

SMILES | cell number change [%] | AC50 [1] | AC50 [2]
O=C(CSC1CC(=O)N(c2ccc(C(=O)O)cc2)C1=O)Nc1ccc(Cl)cc1 (configuration not stated) | -1.55 | 0.731 µM [falling, single point] | 
Cc1cc2ccccn2c1C(=O)c1ccccc1F | 29.1 |  | 0.651 µM [falling, partial curve, poor fit]
O=S1(=O)[C@H]2C[C@@H]3C=C[C@@]2(CN1Cc1cccc(F)c1)O3 | 9.71 |  | 
Cn1c(=NC(=O)c2ccccc2[N+](=O)[O-])sc2cc(S(C)(=O)=O)ccc21 | -36 | 2.06 µM [falling, full curve] | 2.91 µM [falling, full curve, poor fit]
Fc1ccc2nc(-c3ccccc3)nc(SCc3nnc(-c4ccccc4)o3)c2c1 | -12.3 |  | 2.59 µM [rising, single point]
CSC(=NC#N)N1CCN(c2ccccn2)CC1 | -26.3 |  | 20.6 µM [falling, single point]
CC(C)(C)c1ccc(S(=O)(=O)NCC(=O)Nc2ccc(-c3nc4ccccc4s3)cc2)cc1 | -10.2 |  | 
Cc1cc(N)n(-c2ncnc3scc(-c4ccccc4)c23)n1 | 39.1 | 25.9 µM [rising, partial curve] | 3.66 µM [rising, partial curve]
Cc1ccc(OCC(O)Cn2c3ccccc3c3ccccc32)cc1 (configuration not stated) | -66.5 | 6.51 µM [falling, full curve] | 3.66 µM [falling, full curve]
CCN(CC)Cc1cc(C(=O)O)c(-c2ccccc2)o1 | -3.92 |  | 0.0731 µM [falling, full curve, poor fit]
O=C(NCc1cccs1)C1CCCN1C(=O)Nc1ccccc1 (configuration not stated) | -18.1 |  | 23.1 µM [falling, partial curve]
COc1cc(CNCCCSc2nnnn2C)cc(Br)c1OC | -13.2 |  | 32.6 µM [falling, single point]
O=C(O)c1cccnc1Sc1ccccc1 | 70.6 | 29.1 µM [rising, single point] | 
CC(C)(C)c1ccc(Cn2nnc3c(=O)[nH]c(C4CCN(C(=O)c5ccco5)CC4)nc32)cc1 |  |  | 18.4 µM [falling, partial curve]
O=C(Nc1ccccc1Cl)c1cccc(COc2cc(Cl)ccc2Cl)c1 | 44.2 | 11.6 µM [rising, partial curve, poor fit] | 
CCC(c1nnc(SCc2nc3ccccc3s2)n1Cc1ccccc1)N(C)C (configuration not stated) |  |  | 2.06 µM [rising, single point]
CC(C)(Oc1ccc(Cl)cc1)C(=O)NCC1CCCO1 (configuration not stated) | 5.5 |  | 
O=C(O)CN1C(=O)/C(=C\c2ccccc2OCc2ccc(Cl)cc2Cl)SC1=S | -41 | 32.6 µM [falling, single point] | 

Quoted from the listing:
AC50 [1] with `O=C(Nc1ccccc1Cl)c1cccc(COc2cc(Cl)ccc2Cl)c1` is entered as 11.6 µM [rising, partial curve, poor fit]
AC50 [2] with `Cc1cc2ccccn2c1C(=O)c1ccccc1F` is entered as 0.651 µM [falling, partial curve, poor fit]

(list continues)

SMILES | cell number change [%] | AC50 [1] | AC50 [2]
NC(=O)CN1C(=O)NC2(CCCc3ccccc32)C1=O (configuration not stated) |  |  | 29.1 µM [rising, single point]
CC(C)(C)SC(=O)CC1NS(=O)(=O)OC2CCCCC12 (configuration not stated) | 14.9 |  | 0.58 µM [rising, single point]
COc1nc(OC)nc(N2CCC(NC(=O)C(Cc3ccc(C(C)C)cc3)NC(C)=O)CC2)n1 (configuration not stated) |  | 6.51 µM [rising, single point] | 
CN(C)c1ccc(/C=N/NC(=O)CN2CCN(c3ccc(F)cc3)CC2)cc1 | -6.21 | 1.84 µM [falling, partial curve, poor fit] | 2.31 µM [falling, partial curve]
C/C(Cn1nc([N+](=O)[O-])cc1C)=N\NC(=O)c1ccc(C(C)(C)C)cc1 | 3.85 |  | 0.92 µM [rising, full curve, poor fit]
COC(=O)c1ccc(C2/C(=C(\O)c3ccc4c(c3)OCCO4)C(=O)C(=O)N2CCCN(C)C)cc1 (configuration not stated) | -20.2 | 0.0058 µM [falling, full curve, poor fit] | 0.00411 µM [falling, full curve, poor fit]
NC(=O)C1CCN(C(=O)CN2CCCc3ccccc32)CC1 |  | 0.291 µM [falling, partial curve, poor fit] | 
COc1cc2c(cc1OC)CN(S(=O)(=O)c1cccs1)CC2 | 30.6 | 4.11 µM [rising, full curve, poor fit] | 18.4 µM [rising, single point]
Cc1c(C)c2c(OCC(=O)NCC(C)C)cc3c(c2oc1=O)CCC(C)(C)O3 |  |  | 0.58 µM [rising, single point]
Cc1ccc(C(=O)COC(=O)CNC(=O)c2ccccc2)s1 | 21.7 |  | 25.9 µM [rising, single point]
COc1ccc(C2c3ccc(O)cc3Oc3ncn4nc(-c5ccncc5)nc4c32)cc1OC (configuration not stated) | -2.01 |  | 0.517 µM [falling, single point]
COc1cc(/C=C2\SC(=Nc3ccccc3OC)NC2=O)ccc1O | -44.8 | 5.17 µM [falling, partial curve] | 
COc1ccc(OC)c(Nc2nc(-c3sc(NC(=O)C(C)(C)C)nc3C)cs2)c1 | -51.2 | 11.6 µM [falling, partial curve, poor fit] | 16.4 µM [falling, partial curve]
CCOC(=O)C1=C(CC)OC(N)=C(C#N)C1c1cc(OC)ccc1OC (configuration not stated) | -13.9 |  | 
CC1CN(C(=O)CCC(=O)NC2CCCCC2)c2ccccc2S1 (configuration not stated) | 19 |  | 
O=C(Nc1ccc(N2CCOCC2)c(Cl)c1)c1ccc([N+](=O)[O-])o1 | -64.2 | 5.17 µM [falling, partial curve] | 5.17 µM [falling, full curve]
CCOC(=O)Nc1nc(-c2ccc(F)cc2F)cs1 | 23.8 |  | 6.51 µM [rising, single point]
Cc1ccc(-c2csc3ncn(CC#N)c(=O)c23)cc1C | -8.28 | 0.58 µM [rising, single point] | 0.146 µM [rising, full curve, poor fit]
